These results are taken from the supplement of paper PMC8104966.

Molecules are shown by their SMILES. Some of the results follow. This data set is noisy: repeats of one test often differ as much as different tests do.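 Fusion between ACE2-bearing and full-length-spike-bearing U2OS cells was measured by imaging as the percentage of nuclei with both cell types' fluorescent markers. An inhibitory hit is a non-toxic compound whose fusion z-score is below -3, more than three standard deviations beneath the plate's DMSO wells.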

The subject of the assay is U2OS ACE2 x SARS-CoV-2 spike co-culture. As to the kind of experiment: cell-cell fusion (fraction fused) z-score vs plate DMSO control; higher = more fusion. As to conditions: 30 µM; 5 h; toxicity class: non-toxic, passed QC.
Take `COC(=O)C1=CO[C@@H](C)C2CN3CC[C@]4(C(=O)Nc5ccccc54)C3C[C@H]12` (stereo partly drawn): the “cell-cell fusion (z-score)” value was inactive: 1.41.
As to `C[C@]12CC[C@@H]3c4ccc(OC(=O)N(CCCl)CCCl)cc4CC[C@H]3[C@@H]1CC[C@@H]2OP(=O)([O-])[O-].[Na+].[Na+]` [Estramustine phosphate sodium], the “cell-cell fusion (z-score)” value is inactive: 2.09.
For the compound `CN1CCc2cccc(Cl)c2CC1.Cl`, the “cell-cell fusion (z-score)” value is inactive: 2.18.
On to `CC(=O)N[C@@H](Cc1c[nH]c2ccccc12)C(=O)OCc1cc(C(F)(F)F)cc(C(F)(F)F)c1`, for which the “cell-cell fusion (z-score)” value was inactive: 2.68.
For `CCn1cc(C(=O)[O-])c(=O)c2cc3c(cc21)OCO3.[K+]`, the “cell-cell fusion (z-score)” value is inactive: 2.6.
The figure for `CN1C[C@@H]2c3ccccc3Oc3ccc(Cl)cc3[C@H]2C1.O=C(O)/C=C\C(=O)O` [Asenapine Maleate] is inactive: 1.42; for `NCCC(=O)N[C@@H](Cc1c[nH]cn1)C(=O)O` it is inactive: 1.73; for `C/C=C/C(=O)N(CC)c1ccccc1C` it is inactive: 2.05.
Regarding `O=C(Nc1ccc2[nH]ncc2c1)C1CCC1` [Rhodblock 6], the “cell-cell fusion (z-score)” value was inactive: 0.631.
The figure for `C[C@@H](O)[C@H]1C(=O)N2C(C(=O)O)=C(SCCNC=N)C[C@H]12.O` is inactive: -0.0539; for `C#C[C@]1(O)CC[C@H]2[C@@H]3CCC4=Cc5oncc5CC4(C)[C@H]3CCC21C` (stereo partly drawn) [Danazol] it is inactive: 3.12.
The figure for `O=[N+]([O-])c1cccc2c(Br)n[nH]c12` [3-Bromo-7-nitroindazole] is inactive: 1.64; for `CN1C(=O)CCS(=O)(=O)C1c1ccc(Cl)cc1` (stereo not drawn) it is inactive: 1.01; for `CN1C(=O)CCS(=O)(=O)C1c1ccc(Cl)cc1` (stereo not drawn) [Chlormezanone] it is inactive: 3.02.
The figure for `O=C(O)CC(O)(CC(=O)O)C(=O)O` [Citric acid] is inactive: 1.91.
In the case of `Cc1c(-c2ccccc2)oc2c(C(=O)OCCN3CCCCC3)cccc2c1=O.Cl` [Flavoxate hydrochloride], the “cell-cell fusion (z-score)” value was inactive: 2.17.
Take `CNC[C@H](O)c1cccc(O)c1.Cl` [Phenylephrine hydrochloride]: the “cell-cell fusion (z-score)” value is inactive: -0.785.
The figure for `CC(O)c1ccc(S(=O)(=O)NC(=O)NC2CCCCC2)cc1` (stereo not drawn) [Hydroxyhexamide] is inactive: 1.87; for `O=C(O)c1ccc2c(c1)OCO2` it is inactive: 2.57; for `CC(C)(C)NCC(O)c1ccc(O)c(CO)c1.CC(C)(C)NCC(O)c1ccc(O)c(CO)c1.O=S(=O)(O)O` (stereo not drawn) [Salbutamol Sulfate] it is inactive: -0.46.
For `Cc1ccnc2c1NC(=O)c1cccnc1N2C1CC1` [Nevirapine], the “cell-cell fusion (z-score)” value was inactive: 1.7.
Next, `N[C@@H](C(=O)O)[C@@H](O)[C@H](O)[C@H](O)CO`: inactive: 1.75; `CN(C)CCC(c1ccc(Cl)cc1)c1ccccn1.O=C(O)/C=C\C(=O)O` (stereo not drawn) [Chlorpheniramine maleate]: inactive: 4.47; `CC(=O)N[C@@H](CC(=O)O)C(=O)N[C@@H](CCC(=O)O)C(=O)O`: inactive: 1.03.
Turning to `NCC[C@H](O)C(=O)N[C@@H]1C[C@H](N)[C@@H](O[C@H]2O[C@H](CN)[C@@H](O)[C@H](O)[C@H]2O)[C@H](O)[C@H]1O[C@H]1O[C@H](CO)[C@@H](O)[C@H](N)[C@H]1O` [Amikacin], the “cell-cell fusion (z-score)” value was inactive: 2.
Next, `CC(=O)O[C@@H]1CC2C(C)(C)C(=O)C=C[C@]2(C)C2CC[C@]3(C)C(=CC(=O)O[C@H]3c3ccoc3)[C@@]21C` (stereo partly drawn): inactive: 0.963; `Cc1nnc(C(C)C)n1[C@@H]1C[C@H]2CC[C@@H](C1)N2CC[C@H](NC(=O)C1CCC(F)(F)CC1)c1ccccc1` [Maraviroc]: inactive: 4.26.
The figure for `CCCNCC(O)COc1ccccc1C(=O)CCc1ccccc1` (stereo not drawn) [Propafenone] is inactive: 2.54; for `CCCN(CCC)S(=O)(=O)c1ccc(C(=O)O)cc1` [Probenecid] it is inactive: 3.21; for `O=c1[nH]cc(F)c(=O)[nH]1` [Adrucil (Fluorouracil)] it is inactive: 1.53.
For the compound `COc1ccccc1OCC(O)CN1CCN(CC(=O)Nc2c(C)cccc2C)CC1` (stereo not drawn) [Ranolazine], the “cell-cell fusion (z-score)” value is inactive: 2.05.
Next, `CC1COc2c(N3CCN(C)CC3)c(F)cc3c(=O)c(C(=O)O)cn1c23.NCCO` (stereo not drawn): inactive: 2.65; `CC(C)(C)C(=O)C(Oc1ccc(Cl)cc1)n1ccnc1` (stereo not drawn): inactive: 2.03.
Next, `CCC[C@@H]1C[C@@H](C(=O)N[C@@H]([C@H]2O[C@H](SC)[C@H](O)[C@@H](O)[C@H]2O)[C@@H](C)O)N(C)C1.Cl.O` [Lincomycin hydrochloride monohydrate]: inactive: 0.557; `Cc1ncc(CSSCc2cnc(C)c(O)c2CO)c(CO)c1O`: inactive: 0.763.
Next, `CCN1C[C@@]2(COC)C3[C@@H](OC)C4[C@@H]1C3([C@@H]1C[C@@]3(O)[C@H](OC(=O)c5ccccc5)[C@@H]1[C@]4(OC(C)=O)[C@@H](O)[C@@H]3OC)[C@H](OC)C[C@H]2O` [Aconitine]: inactive: 1.37; `CCCCC[C@H]1C(=O)O[C@H](C)[C@H](NC(=O)c2cccc(NC=O)c2O)C(=O)O[C@@H](C)[C@@H]1OC(=O)CC(C)C` [ANTIMYCIN A (A1 shown)]: inactive: 1.63; `CN1CC(=O)N2[C@H](c3ccc4c(c3)OCO4)c3[nH]c4ccccc4c3C[C@@H]2C1=O` [Tadalafil]: inactive: 2.11.
On to `O=C([O-])CC(O)(CC(=O)[O-])C(=O)[O-].[Li+].[Li+].[Li+]`, for which the “cell-cell fusion (z-score)” value was inactive: 0.982.
The figure for `CCCc1nc(C(C)(C)O)c(C(=O)OCc2oc(=O)oc2C)n1Cc1ccc(-c2ccccc2-c2nn[nH]n2)cc1` [Olmesartan Medoxomil] is inactive: 4.16; for `C[C@@H]1CN(c2c(F)c(F)c3c(=O)c(C(=O)O)cn(C4CC4)c3c2F)C[C@H](C)N1` it is inactive: 3.25.
Consider `O=C1NC(=O)C(c2ccccc2)(c2ccccc2)N1` [Phenytoin], for which the “cell-cell fusion (z-score)” value is inactive: 2.65.
The figure for `Cc1cc(Cn2cnc3c2C[C@@H](C(=O)O)N(C(=O)C(c2ccccc2)c2ccccc2)C3)ccc1N.O=C(O)C(F)(F)F` is inactive: 1.58; for `CCN(Cc1ccncc1)C(=O)C(CO)c1ccccc1` (stereo not drawn) [Tropicamide] it is inactive: 0.61.
The figure for `CCCN(CC1CC1)c1nc(C)nc(Nc2c(Cl)cc(Cl)cc2Cl)c1Cl` is inactive: 6.19; for `CC1=C2CC3[C@@H](CC=C4C[C@@H](O)CC[C@@]43C)[C@@H]2CC[C@]12O[C@@H]1C[C@H](C)CN[C@H]1[C@H]2C` (stereo partly drawn) it is inactive: 3.97.
Turning to `N#Cc1nn(-c2c(Cl)cc(C(F)(F)F)cc2Cl)c(N)c1S(=O)C(F)(F)F` (stereo not drawn), the “cell-cell fusion (z-score)” value is inactive: 1.8.
Turning to `COc1cc2c(Nc3ccc(NC(=O)c4ccccc4)cc3)ncnc2cc1OCCCN1CCOCC1`, the “cell-cell fusion (z-score)” value was inactive: 0.444.
Turning to `O=[N+]([O-])c1ccc(O)c2ncccc12`, the “cell-cell fusion (z-score)” value was inactive: 1.44.
The figure for `CC1=C(C/C=C(\C)CCC[C@H](C)CCC[C@H](C)CCCC(C)C)C(=O)c2ccccc2C1=O` is inactive: 1.79; for `O=C(NCCS(=O)(=O)c1ccc(C(F)(F)F)cn1)c1ccc(Cl)cc1` it is inactive: 1.54.
Next, `Cc1cc(C2CCCCC2)n(O)c(=O)c1` [Ciclopirox]: inactive: -0.0889; `CCCC(=O)O[C@]1(C(=O)CO)CCC2[C@@H]3CCC4=CC(=O)CC[C@]4(C)C3[C@@H](O)C[C@@]21C` (stereo partly drawn): inactive: 4.19.
Next, `Nc1nc(Cl)nc2c1ncn2[C@@H]1O[C@H](CO)[C@@H](O)[C@@H]1F` [Clofarabine]: inactive: 1.33; `O=C1C(O)=C([C@H]2CC[C@H](c3ccc(Cl)cc3)CC2)C(=O)c2ccccc21` [Atovaquone]: inactive: 1.32; `COCCCC/C(=N\OCCN)c1ccc(C(F)(F)F)cc1.O=C(O)/C=C\C(=O)O` [Fluvoxamine maleate]: inactive: -0.432.
Take `C[C@H](O)[C@H](O)[C@H]1CNc2nc(N)[nH]c(=O)c2N1.Cl.Cl` [Sapropterin Hydrochloride]: the “cell-cell fusion (z-score)” value is inactive: 0.627.
Regarding `COc1cccc(OC)c1OCCNCC1CSc2ccccc2O1.Cl` (stereo not drawn) [Benoxathian hydrochloride], the “cell-cell fusion (z-score)” value was inactive: 0.313.
Consider `CCCN[C@H]1CCc2nc(N)sc2C1.Cl.Cl` [Pramipexole dihydrochloride], for which the “cell-cell fusion (z-score)” value is inactive: -1.22.
In the case of `CN(C)CCOC(=O)C(c1ccccc1)C1(O)CCCC1.Cl` (stereo not drawn), the “cell-cell fusion (z-score)” value was inactive: 1.61.
Next, `C[N+]1(CCCCC[N+]2(C)CCCC2)CCCC1.O=C([O-])[C@H](O)[C@@H](O)C(=O)O.O=C([O-])[C@H](O)[C@@H](O)C(=O)O` [Pentolinium di[L(+)-tartrate]]: inactive: 1.91; `CCN(CC)CCOC(=O)C(Cc1cccc2ccccc12)CC1CCCO1.O=C(O)C(=O)O` (stereo not drawn): inactive: 3.38.
Next, `CN(C)c1cc(NC(=O)CNC(C)(C)C)c(O)c2c1C[C@H]1C[C@H]3[C@H](N(C)C)C(O)=C(C(N)=O)C(=O)[C@@]3(O)C(O)=C1C2=O` [Tigecycline]: inactive: 4.14; `CS(=O)(=O)O.Cc1ccc(N(CC2=NCCN2)c2cccc(O)c2)cc1` [Phentolamine mesylate]: inactive: 3.29.
`C[N+](C)(C)CCOC(N)=O.[Cl-]` [Carbachol]: the “cell-cell fusion (z-score)” value was inactive: 1.55.
The figure for `C[N+](C)(C)CCOC(N)=O.[Cl-]` is inactive: 0.984.
The figure for `Clc1nccc2c1ccc1ccccc12` is inactive: 1.38; for `CNCC(O)c1ccc(O)c(O)c1.Cl` (racemic) [DL-Adrenaline Hydrochloride] it is inactive: -1.63.
